US9908899B2 (BIOMARIN PHARMACEUTICAL INC., priority 2011, dated 2018)

System: C57BL/6J male mice
Experiment: Long term memory for object recognition (ORM)
Type: in vivo
Conditions: s.c. 3, 10, 30 mg/kg
Procedure: C57BL/6J male mice were handled 1-2 min for 5 days and were habituated to the experimental apparatus 5 min a day for 4 consecutive days in the absence of objects. […] 24-h later mice were tested for memory retention (5 min) using the object recognition memory task (ORM), in which a familiar object was replaced with a novel one. All training and testing trials were videotaped and analyzed by individuals blind to the treatment condition and the genotype of subjects. A mouse was scored as exploring an object when its head was oriented toward the object within a distance of 1 cm or when the nose was touching the object. The relative exploration time was recorded and expressed by a discrimination index [DI=(tnovel−tfamiliar)/(tnovel+tfamiliar)×100].

Q: With Cc1ccc(C(=O)NCCCCCC(=O)Nc2ccccc2N)cc1 [RGFP 109] as the molecule, how does the “effect of dose on long-term memory for object recognition” value read?
A: Dose dependent effects
